{
  "sequences": {"note": "The chains behind the UniProt entries cited, without tags or fusion partners.", "UniProt O00167, whole entry, looked up": "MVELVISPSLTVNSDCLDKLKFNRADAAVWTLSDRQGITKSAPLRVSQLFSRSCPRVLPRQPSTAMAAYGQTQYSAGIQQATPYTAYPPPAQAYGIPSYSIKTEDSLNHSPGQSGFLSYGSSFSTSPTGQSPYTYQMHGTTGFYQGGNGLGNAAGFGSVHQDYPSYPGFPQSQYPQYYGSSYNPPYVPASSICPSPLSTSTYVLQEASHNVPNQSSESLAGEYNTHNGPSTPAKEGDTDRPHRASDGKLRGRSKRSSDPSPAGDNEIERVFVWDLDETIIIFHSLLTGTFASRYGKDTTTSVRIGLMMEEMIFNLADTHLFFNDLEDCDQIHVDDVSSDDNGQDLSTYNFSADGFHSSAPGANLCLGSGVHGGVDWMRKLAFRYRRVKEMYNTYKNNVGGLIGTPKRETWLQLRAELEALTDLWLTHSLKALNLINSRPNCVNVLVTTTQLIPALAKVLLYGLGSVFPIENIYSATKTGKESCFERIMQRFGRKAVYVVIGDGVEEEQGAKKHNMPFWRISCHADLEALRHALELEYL"},
  "source": "PubChem BioAssay AID488837",
  "about": "(National Center for Advancing Translational Sciences (NCATS), 2010)",
  "note": "The campaign covered roughly 330,000 compounds. About 20 (0.006%) were called active. Inconclusive means that the source gave no clear call. Such entries were picked first, then a sample of the others. The call rests on the fitted dose curve; in most records, active means well fitted inhibition curve with a large enough effect; inconclusive means small, poorly fitted or top-dose-only effect, or effect the other way; inactive means flat fitted curve, though single readings scatter. Potencies beside an inconclusive call are fits to weak or partial responses and may not hold up. On the % scale 0 is the no-effect control and ±100 the full control effect; potency means the concentration at half of the fitted maximal effect.",
  "data": [
    {"target": "Protein phosphatase EYA2 (Homo sapiens) (UniProt O00167)", "test": "qHTS Assay for Inhibitors of the Phosphatase Activity of Eya2", "details": "recombinant Eya2, OMFP fluorescence dephosphorylation (OMFP is methylfluorescein phosphate); activity, negative = inhibition: at 76.9 µM (top of the series) unless noted", "excerpt": "The Eya family of proteins are essential co-activators of the Six1 transcription factor. Six1 is a developmental gene that is abnormally re-expressed in a large percentage of breast cancers. This over-expression plays a causal role in the initiation and metastatic development of breast cancers. The Eya family of proteins was also found to contain a unique HAD phosphatase domain with protein tyrosine phosphatase activity which can potentially play a role in Six1-mediated breast tumorigenesis. […] We have developed and optimized a 1536 well fluorescence-based HTS assay targeting the phosphatase activity of Eya2. Inhibitors found against Eya2 could serve as potential therapeutic tools to inhibit Six1-mediated breast tumorigenesis and to increase the efficiency of radiation and certain chemo therapy. These inhibitors could also be used as chemical probes to study the function of Eya2's phosphatase activity and its role in Six1-mediated breast tumorigenesis.\nThe Eya2 enzyme was kindly provided by the laboratory of Dr. Rui Zhao. The 3-O-methyl-fluorescein phosphate (OMFP) substrate and all buffer reagents were purchased from Sigma Aldrich. qHTS Assay Setup: 1. Buffer- 50 mM HEPES pH 7.5, 50 mM NaCl, 5 uM MgCl2, 0.05% BSA, 1 mM DTT. 2. OMFP Stock- 10 mM solution prepared in 100% DMSO and stored in single use aliquots at -20C. Assay Procedure- 1. Dispense 1.5 ul per well of Eya2 at 0.2 uM in black medium binding 1536 well Greiner plate 2. Transfer 23 nl of compound and control compound (EGTA) to plate 3. Incubate at ambient for 10 minutes 4. Dispense 1.5 ul per well of OMFP at 50 uM 5. Incubate at ambient for 10 minutes 6. Read on ViewLux using Excitation = 485 nm, Emission = 525 nm", "values": [
      {"smiles": "Cc1ccc(C(=O)Oc2ccc3ccc(=O)oc3c2)cc1", "Potency": "inconclusive: 100 µM [inhibitor, single point]"},
      {"smiles": "COc1ccc(F)cc1S(=O)(=O)NCC(=O)NCc1cc(=O)n(C)c(=O)n1C", "Potency": "inconclusive: 22.4 µM [inhibitor, single point]"},
      {"smiles": "C=CCNC(=O)N1CCCC(C(=O)c2cccc(OC(C)C)c2)C1", "note": "(configuration not stated)", "Potency": "inconclusive: 25.1 µM [inhibitor, single point]"},
      {"smiles": "CCNC(=O)CSc1nc2cc(S(=O)(=O)Nc3ccc(OC)cc3)ccc2o1", "activity, negative = inhibition": "inactive: -15%"},
      {"smiles": "CCCN1CCN(CCCNC(=S)Nc2ccc(F)cc2)CC1", "Potency": "inconclusive: 89.1 µM [inhibitor, single point]"},
      {"smiles": "Cc1ccc(NC(=O)n2ccc(-c3ccc(-n4ccnc4)cc3)n2)cc1", "Potency": "inconclusive: 112 µM [inhibitor, single point]"},
      {"smiles": "Cc1ccc(-c2csc(N=C(N)N)n2)c(C)c1", "activity, negative = inhibition": "inconclusive: -34.4% [inhibitor]"},
      {"smiles": "NS(=O)(=O)c1ccc(N=Nc2c(=O)[nH]n3c(=O)c4c([nH]c23)CCCC4)cc1", "Potency": "inconclusive: 224 µM [inhibitor, partial curve]"},
      {"smiles": "CC(C)c1ccc(C(CC(=O)c2ccc(Cl)cc2)C(=O)O)cc1", "note": "(configuration not stated)", "Potency": "inconclusive: 22.4 µM [inhibitor, single point]"},
      {"smiles": "CN(C)CCNC(=O)/C(=C/c1ccc(-c2ccc(Cl)cc2)o1)NC(=O)c1ccccc1", "activity, negative = inhibition": "inactive: -5.12%"},
      {"smiles": "Cc1ccc(-n2[nH]c(=O)c3cccnc32)cc1", "Potency": "inconclusive: 708 µM [inhibitor, single point]"},
      {"smiles": "O=C(/C=C\\c1ccco1)NC(=S)Nc1ccccc1O", "Potency": "inconclusive: 112 µM [inhibitor, single point]"},
      {"smiles": "Oc1c(Cl)cc(Cl)cc1CNc1ccccn1", "activity, negative = inhibition": "inactive: -0.0385%"},
      {"smiles": "CC1Sc2n(c3ccccc3[n+]2C)N=C1c1ccccc1", "note": "(configuration not stated)", "activity, negative = inhibition": "inactive: 2.54%"},
      {"smiles": "Cn1c(=O)[nH]c(=O)c2c1nc(N1CCCCC1)n2CC(O)COc1ccc([N+](=O)[O-])cc1", "note": "(configuration not stated)", "Potency": "inconclusive: 112 µM [inhibitor, single point]"},
      {"smiles": "CCN1CCN(c2c(/C=C3\\SC(=S)N(Cc4ccco4)C3=O)c(C)c(C#N)c(=O)n2C)CC1", "Potency": "inconclusive: 50.1 µM [activator, partial curve, poor fit]"},
      {"smiles": "O=C(NCCc1ccccc1)C1CCC(=O)N(CCCN2CCCC2=O)C1", "note": "(configuration not stated)", "Potency": "inconclusive: 112 µM [inhibitor, single point]"},
      {"smiles": "CCSC1=C(C#N)C(c2cccc(O)c2)CC(=O)N1", "note": "(configuration not stated)", "activity, negative = inhibition": "inactive: 1.88%"},
      {"smiles": "COc1ccc2c(c1)O[C@H](c1ccc3c(c1)OCO3)[C@@H](OC(=O)N[C@H]1CCCc3ccccc31)C2=O", "activity, negative = inhibition": "inactive: 4.41%"},
      {"smiles": "COc1ccc2[nH]c(=O)c(CN(C)C(=O)C3CCCCC3)cc2c1", "activity, negative = inhibition": "inactive: 15.1%"},
      {"smiles": "NC(=O)c1ccc(NC(=O)CNC(c2ccccc2)c2ccccc2)cc1", "activity, negative = inhibition": "inactive: 7.6%"},
      {"smiles": "O=C(Nc1ccc2c(c1)Cc1ccccc1-2)c1cccnc1", "activity, negative = inhibition": "inactive: -5.31%"},
      {"smiles": "Cn1cc(CN2C[C@]3(C)C[C@H]2CC(C)(C)C3)c(-c2ccc3c(c2)OCCO3)n1", "Potency": "inconclusive: 25.1 µM [inhibitor, single point]"},
      {"smiles": "CCc1ccccc1-n1nnc(-c2ccccc2)n1", "Potency": "inconclusive: 100 µM [inhibitor, single point]"},
      {"smiles": "CC1CN(CCOc2cccc(Oc3ccccc3)c2)CC(C)O1", "note": "(configuration not stated)", "Potency": "inconclusive: 89.1 µM [inhibitor, single point]"},
      {"smiles": "CCOc1ccc(/C=c2\\sc3nc(-c4ccco4)nn3c2=O)cc1OCC", "activity, negative = inhibition": "inactive: -21.1%"},
      {"smiles": "Cc1cc2oc(=O)cc(CN3CCOCC3)c2cc1C", "Potency": "inconclusive: 15.8 µM [inhibitor, single point]"},
      {"smiles": "O=C(NCCSCc1ccc(Cl)cc1)c1cccs1", "Potency": "inconclusive: 31.6 µM [inhibitor, partial curve, poor fit]"},
      {"smiles": "O=C(c1ccccc1F)N1CCN(c2ccc([N+](=O)[O-])c(NCc3cccnc3)c2)CC1", "Potency": "inconclusive: 17.8 µM [inhibitor, single point]"},
      {"smiles": "COc1ccc2nc(NC(=O)c3cccc(N4C(=O)CCC4=O)c3)sc2c1", "Potency": "inconclusive: 89.1 µM [inhibitor, single point]"},
      {"smiles": "CN(C)c1ccc(CN(C(=O)/C=C/c2ccco2)C2CCS(=O)(=O)C2)cc1", "note": "(configuration not stated)", "activity, negative = inhibition": "inactive: 3.42%"},
      {"smiles": "CCN(Cc1ccccc1)C(=O)CCS(=O)(=O)c1ccc2c(c1)n(C)c(=O)c(=O)n2C", "Potency": "inconclusive: 100 µM [inhibitor, single point]"},
      {"smiles": "O=S(=O)(c1ccc(NC(=S)N2CCN(c3ccc(O)cc3)CC2)cc1)N1CCOCC1", "activity, negative = inhibition": "inactive: -13.4%"},
      {"smiles": "OCCC1CN(Cc2cnc(-c3ccc(Cl)cc3)nc2)CCN1C1CCCCC1", "note": "(configuration not stated)", "Potency": "inconclusive: 100 µM [inhibitor, single point]"},
      {"smiles": "COC(=O)N/N=C/c1ccc(OC(=O)/C=C/c2ccco2)cc1", "activity, negative = inhibition": "inactive: 17.7%"},
      {"smiles": "Cc1nc(-c2cccc(S(=O)(=O)N3CCCCC3)c2)cs1", "Potency": "inconclusive: 708 µM [inhibitor, partial curve, poor fit]"},
      {"smiles": "CSc1nc2ccccc2c(=O)n1C1CCCCC1", "activity, negative = inhibition": "inactive: 6.82%"},
      {"smiles": "COC(=O)c1ccc(NC(=O)CSc2ccccc2)cc1", "activity, negative = inhibition": "inactive: 7.46%"},
      {"smiles": "Cc1nc2ccccn2c1-c1csc(Nc2cccc(C(=O)O)c2)n1", "activity, negative = inhibition": "inactive: -6.54%"},
      {"smiles": "Cc1ccc(N2C(=O)N(CC(=O)Nc3ccccc3C(F)(F)F)C(=O)C2C)cc1", "note": "(configuration not stated)", "activity, negative = inhibition": "inactive: -3.44%"},
      {"smiles": "O=S(=O)(c1ccc(Cl)cc1)N1CCN(Cc2cccnc2)CC1", "Potency": "inconclusive: 22.4 µM [inhibitor, single point]"},
      {"smiles": "COc1ccc(-n2c(Cc3cccn3C)nnc2SCC(=O)Nc2ccc(C)cc2C)cc1", "activity, negative = inhibition": "inactive: 1.36%"},
      {"smiles": "C=CCn1c(C)c(/C=C/c2cc[n+](C)cc2)c2ccccc21", "Potency": "inconclusive: 25.1 µM [activator, partial curve]"},
      {"smiles": "CCc1ccc(CCC(=O)Nc2ccc(Br)cc2)o1", "Potency": "inconclusive: 89.1 µM [inhibitor, single point]"},
      {"smiles": "COc1nc(Nc2ccccc2F)nc(OC)n1", "Potency": "inconclusive: 501 µM [inhibitor, partial curve, poor fit]"},
      {"smiles": "COc1cccc(CN2CCNC(=O)C2CC(=O)NCCn2nc(C)cc2C)c1OC", "note": "(configuration not stated)", "Potency": "inconclusive: 2000 µM [inhibitor, partial curve, poor fit]"},
      {"smiles": "Cc1cc(S(=O)(=O)N2CCCC2)ccc1OCC(=O)N1CCC(C(N)=O)CC1", "Potency": "inconclusive: 100 µM [inhibitor, single point]"}
    ]}
  ]
}
